# Test results from ChEMBL document CHEMBL1800056, “Discovery of 2-(6-{[(6-fluoroquinolin-2-yl)methyl]amino}bicyclo[3.1.0]hex-3-yl)-N-hydroxypyrimidine-5-carboxamide (CHR-3996), a class I selective orally active histone deacetylase inhibitor” (J Med Chem, 2010).
# System: HuT78
# Experiment: Antiproliferative activity against human HUT78 cells after 72 hrs by WST-1 assay
# Type: functional
# Procedure, shortened: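 Cells seeded at (1-5) × 10³/well in serum-containing medium for 24 h at 37 °C, 5% CO₂. Inhibitor added at 0.6-10000 nM for 72 h, with WST-1 pulse over the final 4 h. Formazan read at 450 nm (reference 650 nm). Expressed as % inhibition of vehicle response; GI50 is the concentration inhibiting 50% of vehicle response; n = 6 replicates.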
smiles,measurement,value
O=C(CCCCCCC(=O)Nc1ccccc1)NO [VORINOSTAT],GI50,295 nM
